Consider two molecules from article PMC7069958, “Multi-level and lineage-specific interactomes of the Hox transcription factor Ubx contribute to its functional specificity”.

In this assay the target is GST-Ubx^N51A (Drosophila). The assay is described as follows: pull-down; GST or GST-Ubx fusion proteins in equal amounts with His-purified proteins; affinity buffer (20 mM HEPES, 10 uM ZnCl2, 0.1% Triton, 2 mM EDTA) with NaCl, 1 mM DTT, 0.1 mM PMSF; 2 h at 4 °C; western blot; both purified. A general note: A western blot detects proteins with antibodies after separation by electrophoresis.

No constants are given. Whether binding was seen depends on the method and setting. A result given as binding can be weak or reduced; the word gives no strength. Tags and fused reporters may be left off the sequences shown.

B1: V5-Tin, His-purified (protein, UniProt P22711 1-416)
chain: MLQHHQQQAQSGGYYDHYTQSPSPGSLTNADALNTTPFSVKDILNMVNQTEAYEGSYGHIDGAATASALFAAGEYQNPHQYLNHQQHQQSELPIPQQQLHHQHLDDGATTSSSLSPLLPPPPHQLYGGYQDYGMPAHMFQHHHGHPHQSFQHSASAYNMSASQFYAGASATAYQTPATYNYNYAGSGEVYGGATPSAVGIKSEYIPTPYVTPSPTLDLNSSAEVDSLQAPTQKLCVNPLSQRLMETASNSSSLRSIYGSDEGAKKKDNSQVTSSRSELRKNSISGNSNPGSNSGSTKPRMKRKPRVLFSQAQVLELECRFRLKKYLTGAEREIIAQKLNLSATQVKIWFQNRRYKSKRGDIDCEGIAKHLKLKSEPLDSPTSLPPPIPNHVMWPPTMQQSQQQQQHHAQQQQMQHM
As to B1, the binding result was “binds”.

B2: myc-Exd, His-purified (protein, UniProt P40427 1-376)
chain: MEDPNRMLAHTGGMMAPQGYGLSGQDDGQNAGSENEVRKQKDIGEILQQIMSISEQSLDEAQARKHTLNCHRMKPALFSVLCEIKEKTVLSIRNTQEEEPPDPQLMRLDNMLIAEGVAGPEKGGGGAAAASAAAASQGGSLSIDGADNAIEHSDYRAKLAQIRQIYHQELEKYEQACNEFTTHVMNLLREQSRTRPITPKEIERMVQIIHKKFSSIQMQLKQSTCEAVMILRSRFLDARRKRRNFSKQASEILNEYFYSHLSNPYPSEEAKEELARKCGITVSQVSNWFGNKRIRYKKNIGKAQEEANLYAAKKAAGASPYSMAGPPSGTTTPMMSPAPPQDSMGYPMGSGGYDQQQPYDNSMGGYDPNLHQDLSP
For B2, the binding entry is listed as “binds”.
